Measurements reported in publication PMC4245983.

Substrate: Nc1ncnc2c1ncn2[C@@H]1O[C@H](COP(=O)(O)OP(=O)(O)OP(=O)(O)O)[C@@H](O)[C@H]1O
Test: Steady-state ATPase assay with the enzyme-coupled EnzChek phosphate kit
Format: biochemical
Settings: pH 7.3; 25.0 °C

B1: HscA386 (Escherichia coli K-12) (protein)
chain: MALLQISEPGLSAAPHQRRLAAGIDLGTTNSLVATVRSGQAETLADHEGRHLLPSVVHYQQQGHSVGYDARTNAALDTANTISSVKRLMGRSLADIQQRYPHLPYQFQASENGLPMIETAAGLLNPVRVSADILKALAARATEALAGELDGVVITVPAYFDDAQRQGTKDAARLAGLHVLRLLNEPTAAAIAYGLDSGQEGVIAVYDLGGGTFDISILRLSRGVFEVLATGGDSALGGDDFDHLLADYIREQAGIPDRSDNRVQRELLDAAIAAKIALSDADSVTVNVAGWQGEISREQFNELIAPLVKRTLLACRRALKDAGVEADEVLEVVMVGGSTRVPLVRERVGEFFGRPPLTSIDPDKVVAIGAAIQADILVGNKPDSEM
How did the Km turn out when B1 was run?
The Km was 21.4 µM.
